The other results are listed elsewhere or left out.
These targets were tested with C1=CC2=NC=CN=C2C=C1/C=C/3\C(=O)NC(=O)S3 (assay: log2 fold change, soluble protein after heating vs DMSO (PISA); higher = thermal stabilisation; K562 cells, 10 uM, 30 min; active = over 0.2 and 3.5 SD of the protein, either way, in both replicates (recomputed)).
Summary of the method: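 Quantification of soluble protein used TMTpro 16plex LC-MS/MS, with channel sums equalised. Samples were the supernatant after 21,000xg for 90 min of pooled aliquots from K562 cells (2×10^6 cells/mL) treated with 10 μM compound for 30 min, heated for 3 min over 48°C-58°C, and extracted in PBS with 0.5% NP-40 at 4°C. Values, from duplicates, describe thermal stability against control samples on a log2 fold-change scale.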

Sequences of proteins named here, by UniProt entry; tags and fusion partners are left off. A change or cut given only in a name is not applied to a line headed by its entry.
UniProt Q9NXH8: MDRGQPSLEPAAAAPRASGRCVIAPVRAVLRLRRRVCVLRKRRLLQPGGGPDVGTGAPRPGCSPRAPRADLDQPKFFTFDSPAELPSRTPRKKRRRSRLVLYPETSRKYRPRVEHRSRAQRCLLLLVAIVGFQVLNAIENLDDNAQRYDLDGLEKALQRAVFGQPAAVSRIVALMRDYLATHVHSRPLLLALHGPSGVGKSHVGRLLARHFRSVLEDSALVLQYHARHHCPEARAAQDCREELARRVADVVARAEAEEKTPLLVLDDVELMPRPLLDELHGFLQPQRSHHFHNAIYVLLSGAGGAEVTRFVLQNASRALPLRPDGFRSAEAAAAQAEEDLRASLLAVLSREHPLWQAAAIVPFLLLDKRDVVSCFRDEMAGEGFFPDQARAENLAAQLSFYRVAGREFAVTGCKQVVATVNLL
UniProt Q8IUR0, whole entry, looked up: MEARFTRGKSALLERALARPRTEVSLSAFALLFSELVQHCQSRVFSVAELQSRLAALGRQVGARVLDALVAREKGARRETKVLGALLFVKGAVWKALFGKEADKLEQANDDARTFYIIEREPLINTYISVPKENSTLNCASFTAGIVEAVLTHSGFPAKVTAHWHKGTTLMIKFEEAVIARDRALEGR
UniProt O60704: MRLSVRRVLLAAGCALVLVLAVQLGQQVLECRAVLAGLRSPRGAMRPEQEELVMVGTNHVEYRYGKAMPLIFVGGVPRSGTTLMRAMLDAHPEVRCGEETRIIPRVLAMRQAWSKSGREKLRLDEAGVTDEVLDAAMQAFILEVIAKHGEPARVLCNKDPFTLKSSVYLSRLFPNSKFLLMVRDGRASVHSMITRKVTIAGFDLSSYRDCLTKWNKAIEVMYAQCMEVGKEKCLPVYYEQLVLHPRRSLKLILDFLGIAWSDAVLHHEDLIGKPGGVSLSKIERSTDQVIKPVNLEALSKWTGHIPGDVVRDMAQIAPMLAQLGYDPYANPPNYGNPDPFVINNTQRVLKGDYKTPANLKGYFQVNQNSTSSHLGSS
UniProt Q9NUP7: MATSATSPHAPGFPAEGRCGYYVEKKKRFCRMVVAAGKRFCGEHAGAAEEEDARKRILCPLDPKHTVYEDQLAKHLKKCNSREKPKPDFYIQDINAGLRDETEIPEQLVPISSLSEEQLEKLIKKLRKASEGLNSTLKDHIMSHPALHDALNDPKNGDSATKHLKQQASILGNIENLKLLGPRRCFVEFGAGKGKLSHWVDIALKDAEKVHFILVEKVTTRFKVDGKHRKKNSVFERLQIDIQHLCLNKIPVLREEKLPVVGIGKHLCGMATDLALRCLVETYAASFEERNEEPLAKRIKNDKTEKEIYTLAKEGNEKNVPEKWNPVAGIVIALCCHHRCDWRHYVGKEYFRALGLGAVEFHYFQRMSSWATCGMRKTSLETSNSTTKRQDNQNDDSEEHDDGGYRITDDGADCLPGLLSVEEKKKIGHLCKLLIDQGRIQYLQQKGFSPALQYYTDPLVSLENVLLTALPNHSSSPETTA
UniProt P29144: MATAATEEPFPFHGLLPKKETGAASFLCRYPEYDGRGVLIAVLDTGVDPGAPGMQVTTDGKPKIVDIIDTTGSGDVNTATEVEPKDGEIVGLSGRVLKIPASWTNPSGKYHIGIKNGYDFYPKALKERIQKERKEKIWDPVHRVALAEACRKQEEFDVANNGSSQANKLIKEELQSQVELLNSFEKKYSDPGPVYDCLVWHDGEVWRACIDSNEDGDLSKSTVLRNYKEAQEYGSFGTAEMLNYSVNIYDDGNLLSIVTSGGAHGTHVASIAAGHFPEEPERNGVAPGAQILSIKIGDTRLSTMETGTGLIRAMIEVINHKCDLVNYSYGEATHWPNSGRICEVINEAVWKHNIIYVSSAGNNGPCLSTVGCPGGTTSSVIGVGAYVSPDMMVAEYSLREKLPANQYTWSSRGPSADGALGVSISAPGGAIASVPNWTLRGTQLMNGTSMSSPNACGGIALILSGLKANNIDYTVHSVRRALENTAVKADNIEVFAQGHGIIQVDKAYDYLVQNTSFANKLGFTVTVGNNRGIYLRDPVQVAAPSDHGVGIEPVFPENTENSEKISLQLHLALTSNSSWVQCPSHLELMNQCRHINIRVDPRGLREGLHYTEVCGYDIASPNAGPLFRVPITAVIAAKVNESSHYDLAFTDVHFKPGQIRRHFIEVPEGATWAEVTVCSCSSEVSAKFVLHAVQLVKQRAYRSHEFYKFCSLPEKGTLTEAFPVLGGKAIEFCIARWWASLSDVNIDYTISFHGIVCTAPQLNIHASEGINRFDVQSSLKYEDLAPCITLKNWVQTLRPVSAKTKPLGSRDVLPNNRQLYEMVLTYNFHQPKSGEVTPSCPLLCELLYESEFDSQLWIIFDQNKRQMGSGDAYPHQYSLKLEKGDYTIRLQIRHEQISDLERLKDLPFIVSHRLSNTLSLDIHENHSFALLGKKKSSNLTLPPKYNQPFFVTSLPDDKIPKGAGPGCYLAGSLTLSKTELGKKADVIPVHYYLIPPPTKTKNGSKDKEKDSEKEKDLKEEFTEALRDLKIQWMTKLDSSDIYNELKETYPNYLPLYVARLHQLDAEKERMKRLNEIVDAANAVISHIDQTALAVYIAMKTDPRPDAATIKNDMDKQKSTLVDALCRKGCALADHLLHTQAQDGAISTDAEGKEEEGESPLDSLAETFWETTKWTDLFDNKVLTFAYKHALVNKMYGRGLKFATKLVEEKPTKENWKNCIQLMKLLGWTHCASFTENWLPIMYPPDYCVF
UniProt Q9Y3Q8: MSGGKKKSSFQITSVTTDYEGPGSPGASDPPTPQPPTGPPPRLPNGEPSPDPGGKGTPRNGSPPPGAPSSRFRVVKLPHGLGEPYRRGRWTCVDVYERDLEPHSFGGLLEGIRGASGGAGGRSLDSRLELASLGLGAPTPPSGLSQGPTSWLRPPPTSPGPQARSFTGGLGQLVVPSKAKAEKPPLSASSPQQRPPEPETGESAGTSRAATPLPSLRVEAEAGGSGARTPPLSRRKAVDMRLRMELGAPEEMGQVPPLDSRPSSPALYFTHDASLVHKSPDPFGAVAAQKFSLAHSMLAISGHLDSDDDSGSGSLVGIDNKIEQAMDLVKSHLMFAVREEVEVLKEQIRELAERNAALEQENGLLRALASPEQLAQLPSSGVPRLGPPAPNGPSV
UniProt Q9UJA5: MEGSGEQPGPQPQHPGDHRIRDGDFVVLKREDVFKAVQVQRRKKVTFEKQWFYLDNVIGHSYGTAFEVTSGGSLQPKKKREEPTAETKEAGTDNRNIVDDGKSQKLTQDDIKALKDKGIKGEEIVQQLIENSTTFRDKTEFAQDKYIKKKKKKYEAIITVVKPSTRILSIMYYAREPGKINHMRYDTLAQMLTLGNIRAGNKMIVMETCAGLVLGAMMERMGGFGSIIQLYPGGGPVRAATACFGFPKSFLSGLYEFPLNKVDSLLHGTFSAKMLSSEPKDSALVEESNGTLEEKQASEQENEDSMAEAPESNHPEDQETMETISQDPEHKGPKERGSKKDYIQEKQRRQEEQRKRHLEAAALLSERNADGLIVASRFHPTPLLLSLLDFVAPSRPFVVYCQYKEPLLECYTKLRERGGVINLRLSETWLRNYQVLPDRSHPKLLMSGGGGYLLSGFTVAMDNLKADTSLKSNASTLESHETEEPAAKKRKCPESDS
UniProt Q9NS69: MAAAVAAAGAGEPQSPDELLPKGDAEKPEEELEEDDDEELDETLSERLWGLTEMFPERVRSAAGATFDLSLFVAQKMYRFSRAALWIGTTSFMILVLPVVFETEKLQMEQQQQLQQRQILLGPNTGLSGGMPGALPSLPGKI
UniProt P06753, whole entry, looked up: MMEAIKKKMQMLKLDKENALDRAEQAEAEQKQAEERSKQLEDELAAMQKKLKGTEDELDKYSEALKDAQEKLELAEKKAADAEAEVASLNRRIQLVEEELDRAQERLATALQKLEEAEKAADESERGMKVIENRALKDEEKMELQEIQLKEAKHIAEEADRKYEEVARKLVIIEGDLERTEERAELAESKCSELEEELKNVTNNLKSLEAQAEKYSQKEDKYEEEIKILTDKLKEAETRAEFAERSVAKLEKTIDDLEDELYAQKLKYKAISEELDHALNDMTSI
UniProt Q8WVT3: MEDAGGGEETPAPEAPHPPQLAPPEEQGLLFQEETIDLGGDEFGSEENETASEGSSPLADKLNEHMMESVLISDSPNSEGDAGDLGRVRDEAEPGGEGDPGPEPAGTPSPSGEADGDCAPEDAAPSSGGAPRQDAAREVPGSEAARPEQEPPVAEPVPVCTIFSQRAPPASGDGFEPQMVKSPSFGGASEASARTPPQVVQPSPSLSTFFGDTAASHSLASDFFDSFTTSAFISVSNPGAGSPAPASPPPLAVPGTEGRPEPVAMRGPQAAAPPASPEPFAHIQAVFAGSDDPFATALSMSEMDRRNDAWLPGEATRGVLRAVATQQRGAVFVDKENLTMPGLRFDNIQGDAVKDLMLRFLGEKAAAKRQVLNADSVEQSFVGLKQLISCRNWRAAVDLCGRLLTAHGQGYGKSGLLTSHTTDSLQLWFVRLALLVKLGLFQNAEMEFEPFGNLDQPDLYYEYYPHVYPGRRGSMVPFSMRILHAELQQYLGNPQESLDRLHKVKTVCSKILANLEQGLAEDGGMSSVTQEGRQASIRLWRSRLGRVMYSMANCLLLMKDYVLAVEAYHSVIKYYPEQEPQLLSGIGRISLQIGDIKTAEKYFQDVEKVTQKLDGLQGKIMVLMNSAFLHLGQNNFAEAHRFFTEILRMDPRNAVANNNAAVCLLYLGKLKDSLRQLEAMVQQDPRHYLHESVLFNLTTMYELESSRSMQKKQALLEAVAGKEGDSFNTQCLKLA
UniProt Q9BQ61: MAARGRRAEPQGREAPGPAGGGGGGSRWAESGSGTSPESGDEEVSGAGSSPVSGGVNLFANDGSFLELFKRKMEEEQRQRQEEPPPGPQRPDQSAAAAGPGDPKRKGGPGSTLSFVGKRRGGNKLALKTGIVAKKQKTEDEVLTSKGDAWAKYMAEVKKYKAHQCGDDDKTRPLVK
UniProt Q02880: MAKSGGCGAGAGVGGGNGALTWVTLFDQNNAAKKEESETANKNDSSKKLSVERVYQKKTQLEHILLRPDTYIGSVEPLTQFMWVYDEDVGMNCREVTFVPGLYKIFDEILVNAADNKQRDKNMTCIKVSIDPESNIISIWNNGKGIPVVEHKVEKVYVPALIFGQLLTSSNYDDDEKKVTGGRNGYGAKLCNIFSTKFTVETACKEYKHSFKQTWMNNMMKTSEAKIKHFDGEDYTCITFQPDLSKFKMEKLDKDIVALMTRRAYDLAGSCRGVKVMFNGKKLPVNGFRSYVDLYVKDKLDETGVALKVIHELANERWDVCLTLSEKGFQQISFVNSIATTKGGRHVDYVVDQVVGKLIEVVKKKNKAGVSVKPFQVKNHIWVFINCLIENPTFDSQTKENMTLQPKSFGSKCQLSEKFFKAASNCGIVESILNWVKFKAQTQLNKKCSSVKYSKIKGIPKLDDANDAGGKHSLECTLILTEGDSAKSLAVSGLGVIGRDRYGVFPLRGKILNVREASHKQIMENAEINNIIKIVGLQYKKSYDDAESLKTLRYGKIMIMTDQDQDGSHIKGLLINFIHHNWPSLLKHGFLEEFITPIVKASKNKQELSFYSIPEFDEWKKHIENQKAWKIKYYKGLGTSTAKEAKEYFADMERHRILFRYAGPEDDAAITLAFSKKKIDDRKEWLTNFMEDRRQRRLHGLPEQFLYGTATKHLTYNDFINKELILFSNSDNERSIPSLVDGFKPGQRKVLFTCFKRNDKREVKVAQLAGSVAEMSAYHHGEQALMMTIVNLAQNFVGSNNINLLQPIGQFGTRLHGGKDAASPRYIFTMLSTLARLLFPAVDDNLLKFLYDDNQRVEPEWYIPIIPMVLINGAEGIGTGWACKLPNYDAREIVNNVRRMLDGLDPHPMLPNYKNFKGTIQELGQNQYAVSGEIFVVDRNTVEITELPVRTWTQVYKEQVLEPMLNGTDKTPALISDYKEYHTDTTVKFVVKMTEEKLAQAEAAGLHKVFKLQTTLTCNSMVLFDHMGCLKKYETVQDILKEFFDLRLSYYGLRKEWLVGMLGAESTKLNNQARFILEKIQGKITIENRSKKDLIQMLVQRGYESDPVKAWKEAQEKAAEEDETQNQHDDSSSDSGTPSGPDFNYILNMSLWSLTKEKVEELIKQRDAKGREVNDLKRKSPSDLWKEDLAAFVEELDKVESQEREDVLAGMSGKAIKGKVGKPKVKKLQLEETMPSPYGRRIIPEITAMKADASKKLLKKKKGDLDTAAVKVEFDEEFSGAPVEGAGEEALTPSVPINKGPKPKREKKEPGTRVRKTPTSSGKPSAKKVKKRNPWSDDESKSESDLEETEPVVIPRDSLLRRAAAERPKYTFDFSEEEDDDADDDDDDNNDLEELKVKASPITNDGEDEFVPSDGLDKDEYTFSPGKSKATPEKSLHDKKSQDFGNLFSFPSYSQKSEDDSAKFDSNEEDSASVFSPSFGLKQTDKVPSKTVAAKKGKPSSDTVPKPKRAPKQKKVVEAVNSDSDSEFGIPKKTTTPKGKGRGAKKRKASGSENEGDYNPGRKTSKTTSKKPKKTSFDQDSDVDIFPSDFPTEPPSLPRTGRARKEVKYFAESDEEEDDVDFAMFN

log2 fold change, inactive:
TP53RK (UniProt Q96S44) 0.03, TOR4A (UniProt Q9NXH8) -0.038, TRIM56 (UniProt Q9BRZ2) -0.054, TRAPPC5 (UniProt Q8IUR0) 0.002, TPST2 (UniProt O60704) -0.032, TRMT13 (UniProt Q9NUP7) 0.029, TPP2 (UniProt P29144) -0.08, TNFRSF1B (UniProt P20333) 0.011, TSC22D4 (UniProt Q9Y3Q8) 0.056, TSC22D2 (UniProt O75157) 0.041, TSEN15 (UniProt Q8WW01) 0.029, TRMT6 (UniProt Q9UJA5) 0.035, TOMM22 (UniProt Q9NS69) 0.147, TRAPPC10 (UniProt P48553) 0.05, TRIM25 (UniProt Q14258) -0.001, TPM3 isoform 2 (UniProt P06753) 0.02, TRAPPC12 (UniProt Q8WVT3) 0.044, TRMU (UniProt O75648) 0.037, TP53BP2 isoform 3 (UniProt Q13625) -0.276, TRMT11 (UniProt Q7Z4G4) 0.025, TOR1AIP2 (UniProt Q8NFQ8) -0.002, TPM3 isoform 4 (UniProt P06753) -0.067, TRPV2 (UniProt Q9Y5S1) 0.05, TPM1 (UniProt H7BYY1) 0.033, TPCN1 isoform 3 (UniProt Q9ULQ1) 0.112, TOR2A (UniProt Q5JU69) 0.141, TRIP4 (UniProt Q15650) 0.036, TOR1AIP1 isoform 3 (UniProt Q5JTV8) 0.034, TOR1A (UniProt O14656) 0.029, TPI1 (UniProt P60174) 0.002, TRIR (UniProt Q9BQ61) 0.041, TOP2B (UniProt Q02880) 0.095

— the supplement of paper PMC10849652
